{
  "source": "patent US10633542B2",
  "about": "“Azacyanine dyes and use thereof” (Ecole Polytechnique Fédérale de Lausanne (EPFL), priority 2018, dated 2020)",
  "tested_on": "A431 cells",
  "assay": "Cell uptake in live cells",
  "assay_type": "cell-based",
  "details": "5 μM solution of dye in PBS, well F12, imaging check",
  "method": "Therefore, we performed such experiments in live cells with Compound VIII compound. […] The following procedure was used:\nCells were grown in 96 well plates to confluent level. Media was removed, cells washed with PBS, incubated for a set time (5, 15, or 30 minutes) at varying concentrations of the dye (5 μM, 10 μM, and 25 μM) in PBS. Dye was removed, cells washed twice with PBS, then PBS added for imaging.\nThe values for each well were consistent with that of the control group of wells that were not exposed to the dye in wells A1-A3. The bright well at F12 is a solution of Compound VIII at 5 μM in PBS to insure imaging of the dye is occurring.",
  "data": [
    {"smiles": "CN1C=CC=C2C1=N/C(=C\\C=C1/C[N+](C)(C)CC(/C=C/C3=Nc4c(ccc[n+]4C)C3(C)C)=C1Cl)C2(C)C.I", "note": "[Compound VIII]", "values": [
      {"measurement": "Avg Radiant Efficiency", "value": "3.33E+07 [p/s/cm^2/sr]/[μW/cm^2]"}
    ]}
  ]
}
